Record: PubChem BioAssay AID743121 (NCATS, 2013)
The deposit covers about 26,000 reagents; shown is a part drawn at random. Of all reagents, 167 (0.63%) were called active. 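Calls are per gene from RSA p-values that are not deposited; an individual active-marked siRNA can sensitise only weakly.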 Entries without a mark were called inactive. The numbers tell different reagents against one gene apart. No sequences are given here.

- Assay: 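Partners whose loss is lethal together with topoisomerase I blockade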 (primary screen)
- Cells: MDA-MB-231 cells, a human breast cancer line
- Reagent: single siRNA against human genes, 20 nM siRNA (0.8 pmol per well)
- Time to read-out: 120 h (drug added 48 h after transfection, read 72 h later)
- Treatment: camptothecin 20 nM (about EC30) for 72 h; vehicle 0.1% DMSO in parallel plates
- Measured: 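Cell viability by ATP luminescence (CellTiter-Glo) as % of non-targeting siRNA wells, and the log2 ratio of viability without drug over viability with camptothecin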
- Direction: log2 vehicle/camptothecin viability: higher = stronger sensitisation to camptothecin; viability with camptothecin and viability without drug: higher = more viable cells
- Call rule: 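Active genes have an RSA gene-level p-value below 0.001, computed from the ratios of their separate siRNAs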

gene	reagent no.	log2 vehicle/camptothecin viability	viability with camptothecin (% of control)	viability without drug (% of control)
GNRHR	1	0.277	40.4	49
GNRHR	2	-0.124	76.9	70.6
GNRHR	3	0.0782	54.7	57.8
GNRHR	4	-0.609	89.9	58.9
PTHLH	1	-0.00814	99.8	99.2
PTHLH	2	-0.36	49.8	38.8
PTHLH	3	0.286	59.4	72.4
PTHLH	4	-0.339	47.7	37.7
BMP2	1	-0.306	60.6	49
BMP2	2	0.175	52.8	59.6
BMP2	3	-0.207	89.3	77.3
BMP2	4	-0.00566	106	106
CHRNB2	1	-0.118	44.5	41
CHRNB2	2	0.108	73.1	78.8
CHRNB2	3	-0.417	94	70.4
FHL2	1	-0.56	65.4	44.3
FHL2	2	-0.0105	115	114
FHL2	3	-0.844	73.8	41.1
FHL2	4	-0.182	78.3	69
RAD51AP1	1	-0.212	109	94.3
RAD51AP1	2	-0.31	89.7	72.4
RAD51AP1	3	-0.287	88.4	72.5
RAD51AP1	4	-0.341	120	95
OLFM4	1	-0.57	66.4	44.7
OLFM4	2	-0.147	92.8	83.8
OLFM4	3	-0.16	8.46	7.58
OLFM4	4	-0.311	44.1	35.6
P2RX7	1	-0.0153	94.8	93.8
P2RX7	2	-0.545	81.3	55.7
P2RX7	3	0.0328	74.1	75.8
POLB	1	-0.452	96.5	70.6
POLB	2	-0.164	55.4	49.4
POLB	3	-0.409	19	14.3
POLB	4	-0.229	102	87.1
ABCA1	1	-0.103	116	108
ABCA1	2	-0.387	52.7	40.3
ABCA1	3	0.36	76.2	97.8
ABCA1	4	0.318	71.3	88.9
TRPM7	1	-0.319	86.7	69.5
TRPM7	2	0.527	28.6	41.2
TRPM7	3	-0.699	66.5	41
TRPM7	4	-0.67	90.9	57.1
PRSS27	1	0.0523	58.1	60.2
PRSS27	2	0.0306	62.5	63.8
PRSS27	3	0.0346	81	83
PRSS27	4	-0.223	56.2	48.2
MFRP	1	-0.473	63.6	45.8
MFRP	2	-0.061	84.3	80.8
MFRP	3	0.0286	63	64.2
MFRP	4	-0.382	29.8	22.8
IL2RB	1	-0.199	73.8	64.2
IL2RB	2	0.516	35.3	50.5
IL2RB	3	-0.237	100	84.9
BECN1	1	-0.48	110	78.6
BECN1	2	-0.506	76.3	53.7
BECN1	3	-0.321	71.5	57.2
BECN1	4	-0.628	91.6	59.3
AKR1C6P	1	-0.0384	83	80.8
AKR1C6P	2	0.0789	76.6	80.9
AKR1C6P	3	-0.0457	76.9	74.5
AKR1C6P	4	-0.0662	91.8	87.7
SGPP1	1	0.33	27	33.9
SGPP1	2	-0.0867	22.8	21.4
SGPP1	3	-0.192	11.8	10.4
SGPP1	4	0.389	86.2	113
ERBIN	1	0.0318	102	105
ERBIN	2	0.374	47.9	62
ERBIN	3	-0.0931	91.1	85.4

Reformatted: results already given
gene | reagent no. | log2 vehicle/camptothecin viability | viability with camptothecin (% of control) | viability without drug (% of control)
BECN1 | 1 | -0.48 | 110 | 78.6
BECN1 | 2 | -0.506 | 76.3 | 53.7
BECN1 | 3 | -0.321 | 71.5 | 57.2
BECN1 | 4 | -0.628 | 91.6 | 59.3
AKR1C6P | 1 | -0.0384 | 83 | 80.8
AKR1C6P | 2 | 0.0789 | 76.6 | 80.9
